Results deposited as PubChem BioAssay AID602196 (INSERM, 2012)
Here is one part, drawn at random, of about 23,000 reagents. Of all reagents, 455 (2%) were called active. 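Active includes both protection and sensitisation; some change values fall well beyond the stated -50 to +50 range.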 Further read-outs or replicates are left out here. Not given: the amount of reagent.

- Assay: 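Modifiers of cisplatin sensitivity in A549 cells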
- Cells: human A549 lung cancer cells
- Knock-down reagent: siRNA pair against human genes
- Duration: 48 h transfection before cisplatin; time from cisplatin to read-out not stated
- Challenge: cisplatin at a dose killing half of control-siRNA cells; exact dose and duration not given
- Measurement: 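Cisplatin cell death as a shift from the 50% death seen with control siRNA; siRNAs toxic or growth-blocking alone scored 0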
- Direction: two-siRNA summed score (-2 to +2): higher = both siRNAs protect from cisplatin killing; -2 means both sensitise; mean protection from cisplatin (shift in death): higher = protection from cisplatin killing
- Call rule: 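Each siRNA scores 0 if harmful alone by LDH or WST-1, otherwise +1 if it reduces and -1 if it increases cisplatin killing; a gene is active when both siRNAs agree (sum +2 or -2)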
- Calls: active = both siRNAs shift cisplatin killing the same way; inactive = no consistent shift, or siRNA harmful alone

What did the screen give for DIAPH1 (GeneID 1729)?
two-siRNA summed score (-2 to +2): 0; mean protection from cisplatin (shift in death) (%): 12.9; Outcome: inactive

What did the screen give for CA5B (GeneID 11238)?
two-siRNA summed score (-2 to +2): 0; mean protection from cisplatin (shift in death) (%): -2.4; Outcome: inactive

What did the screen give for LOC102725228 (GeneID 102725228)?
two-siRNA summed score (-2 to +2): 1; mean protection from cisplatin (shift in death) (%): 17.7; Outcome: inactive

Which result is listed for AKAP12 (GeneID 9590)?
two-siRNA summed score (-2 to +2): 0; mean protection from cisplatin (shift in death) (%): -6.5; Outcome: inactive

Which result is listed for CIAO2AP2 (GeneID 391174)?
two-siRNA summed score (-2 to +2): 0; mean protection from cisplatin (shift in death) (%): 18.6; Outcome: inactive

For NARS2 (GeneID 79731), what does the deposit list?
two-siRNA summed score (-2 to +2): 0; mean protection from cisplatin (shift in death) (%): 13.2; Outcome: inactive

Which result is listed for ARG99?
two-siRNA summed score (-2 to +2): 1; mean protection from cisplatin (shift in death) (%): 18; Outcome: inactive

How did the screen score DNAJB9 (GeneID 4189)?
two-siRNA summed score (-2 to +2): 0; mean protection from cisplatin (shift in death) (%): -5; Outcome: inactive

For SCRIB (GeneID 23513), what was measured?
two-siRNA summed score (-2 to +2): 0; mean protection from cisplatin (shift in death) (%): 5.1; Outcome: inactive

With PRLHR (GeneID 2834), how do the results read?
two-siRNA summed score (-2 to +2): 0; mean protection from cisplatin (shift in death) (%): 0.9; Outcome: inactive

Which result is listed for WFDC2 (GeneID 10406)?
two-siRNA summed score (-2 to +2): 0; mean protection from cisplatin (shift in death) (%): 20.1; Outcome: inactive

With MPHOSPH8 (GeneID 54737), how do the results read?
two-siRNA summed score (-2 to +2): 0; mean protection from cisplatin (shift in death) (%): 0.2; Outcome: inactive

For AAMP (GeneID 14), what does the deposit list?
two-siRNA summed score (-2 to +2): 0; mean protection from cisplatin (shift in death) (%): 9.8; Outcome: inactive

For ZNF534 (GeneID 147658), what was measured?
two-siRNA summed score (-2 to +2): 0; mean protection from cisplatin (shift in death) (%): -2.7; Outcome: inactive

For TFB2M (GeneID 64216), what does the deposit list?
two-siRNA summed score (-2 to +2): 0; mean protection from cisplatin (shift in death) (%): 2.7; Outcome: inactive

What is on record for TMEM260 (GeneID 54916)?
two-siRNA summed score (-2 to +2): 0; mean protection from cisplatin (shift in death) (%): 2.2; Outcome: inactive

For L1CAM (GeneID 3897), how do the results read?
two-siRNA summed score (-2 to +2): -1; mean protection from cisplatin (shift in death) (%): -19.5; Outcome: inactive

For LIMS3 (GeneID 96626), what does the deposit list?
two-siRNA summed score (-2 to +2): -1; mean protection from cisplatin (shift in death) (%): -8.7; Outcome: inactive

With PHKG2 (GeneID 5261), what was measured?
two-siRNA summed score (-2 to +2): 0; mean protection from cisplatin (shift in death) (%): 8.5; Outcome: inactive

What did the screen give for KLHL34 (GeneID 257240)?
two-siRNA summed score (-2 to +2): 0; mean protection from cisplatin (shift in death) (%): -8.5; Outcome: inactive

What did the screen give for OR3A3 (GeneID 8392)?
two-siRNA summed score (-2 to +2): -1; mean protection from cisplatin (shift in death) (%): -12.6; Outcome: inactive

For LOC387750, what does the deposit list?
two-siRNA summed score (-2 to +2): 0; mean protection from cisplatin (shift in death) (%): 0.9; Outcome: inactive

With PTGR3 (GeneID 284273), how do the results read?
two-siRNA summed score (-2 to +2): 0; mean protection from cisplatin (shift in death) (%): -0.7; Outcome: inactive

With NNT (GeneID 23530), what was measured?
two-siRNA summed score (-2 to +2): 0; mean protection from cisplatin (shift in death) (%): -9.2; Outcome: inactive

What is on record for SOWAHA (GeneID 134548)?
two-siRNA summed score (-2 to +2): 1; mean protection from cisplatin (shift in death) (%): 16.9; Outcome: inactive

What did the screen give for IFT140 (GeneID 9742)?
two-siRNA summed score (-2 to +2): 0; mean protection from cisplatin (shift in death) (%): 3.5; Outcome: inactive

For DPP3 (GeneID 10072), what was measured?
two-siRNA summed score (-2 to +2): -1; mean protection from cisplatin (shift in death) (%): -0.6; Outcome: inactive

How did the screen score SYAP1 (GeneID 94056)?
two-siRNA summed score (-2 to +2): 0; mean protection from cisplatin (shift in death) (%): -9.7; Outcome: inactive

What did the screen give for PI4K2A (GeneID 55361)?
two-siRNA summed score (-2 to +2): 0; mean protection from cisplatin (shift in death) (%): 3.9; Outcome: inactive

What did the screen give for PIK3R5 (GeneID 23533)?
two-siRNA summed score (-2 to +2): 1; mean protection from cisplatin (shift in death) (%): -4; Outcome: inactive

What did the screen give for BLNK (GeneID 29760)?
two-siRNA summed score (-2 to +2): -1; mean protection from cisplatin (shift in death) (%): -16.1; Outcome: inactive

Entries listed so far whose target name starts with C or c:
CA5B (GeneID 11238) — two-siRNA summed score (-2 to +2) = 0; mean protection from cisplatin (shift in death) (%) = -2.4; Outcome = inactive
CIAO2AP2 (GeneID 391174) — two-siRNA summed score (-2 to +2) = 0; mean protection from cisplatin (shift in death) (%) = 18.6; Outcome = inactive
